According to PMC7819943, “Rice protein-binding microarrays: a tool to detect cis-acting elements near promoter regions in rice”:
Some of the results follow.

molecular target: T1, OsSMF1 (Oryza sativa, UniProt Q6ZLB0 1-436); assay: protein-binding microarray (RPBM); PBS, 2% BSA, 51.3 ng/ul salmon testes DNA, 50 uM zinc acetate, 200 nM TF, 25 C, 1 h; high values mean tight binding; conditions: protein: recombinant; tags: N-terminal polyhistidine and DsRed monomer fusion (pET32a); chain copies: 2; label: CyDye5-dUTP incorporated in the synthesized complementary strand; 3' TTTTT single-stranded linker to array surface; dsDNA, one strand shown
T1 sequence: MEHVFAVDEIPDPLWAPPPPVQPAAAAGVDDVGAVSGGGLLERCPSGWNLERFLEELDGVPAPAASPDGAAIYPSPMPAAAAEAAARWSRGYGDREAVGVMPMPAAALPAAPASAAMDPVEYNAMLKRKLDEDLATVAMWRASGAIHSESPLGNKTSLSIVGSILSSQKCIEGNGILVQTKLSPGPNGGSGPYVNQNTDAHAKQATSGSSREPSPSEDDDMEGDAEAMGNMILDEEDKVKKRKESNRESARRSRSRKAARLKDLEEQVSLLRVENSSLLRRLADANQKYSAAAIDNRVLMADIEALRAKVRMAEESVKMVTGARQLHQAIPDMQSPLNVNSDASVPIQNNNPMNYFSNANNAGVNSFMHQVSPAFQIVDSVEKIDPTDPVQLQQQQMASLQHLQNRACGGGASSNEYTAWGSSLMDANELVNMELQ
In short: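 Transcription factors, each fused N-terminally to a polyhistidine tag and DsRed, were expressed in E. coli BL21-CodonPlus and purified on Ni–NTA. A custom Agilent array was made double-stranded by primer extension with Cy5-dUTP and blocked with 2% BSA. It was incubated with 200 nM protein in PBS, 2% BSA, salmon testes DNA and 50 µM zinc acetate at 25 °C for 1 h, then washed. The binding signal is per-feature fluorescence intensity (arbitrary units) read on an Axon 4000B scanner.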

First: CGCCCGCCCGCCGGTCGCTGCGCCAGACGACCACTAAGCCCGGAGTCACCTAGTGCAG
Second: CGGCCGGCCGTGGATGACGTCGTTGCTGCCCTTACCACTGCGGAGTCACCTAGTGCAG
The binding signal of the first is lower: 3340 fluorescence intensity (a.u.) for the first, 5340 fluorescence intensity (a.u.) for the second.

First: TAGCATTAGCATAAGGGAGGGAGGGAGGGAGGGATCATTACGGAGTCACCTAGTGCAG
Second: CTAAAATACCGTACACTGTTTCACTTGTGTTCACTCCCAACGGAGTCACCTAGTGCAG
The binding signal of the first is lower: 3670 fluorescence intensity (a.u.) for the first, 12700 fluorescence intensity (a.u.) for the second.

Going from “ACACACCCGCGCCGTTCCTGCGCGCCTTGTTCGCGTCCATCGGAGTCACCTAGTGCAG” to “TGCTGCTGCTGCATAGGTTCTACACGGAGTGCCTTGGGATCGGAGTCACCTAGTGCAG”, the binding signal falls from 26500 fluorescence intensity (a.u.) to 4490 fluorescence intensity (a.u.).

Compared with “AATGCCTAATACAGTAGTACAGTACTACAGTAATAACCTGCGGAGTCACCTAGTGCAG”, “AAATATTAAGTTATTATATCATAGCGTGGAAGAGCTGCTACGGAGTCACCTAGTGCAG” is higher in binding signal: 3180 fluorescence intensity (a.u.) for the first, 12600 fluorescence intensity (a.u.) for the second.

Going from “GTATATATTTAGTGTAACAAAGTGCTGTAATGACTGTCATCGGAGTCACCTAGTGCAG” to “GAAATTGATGTTGATGCATTGGCTGACTCAGTTGGTAATGCGGAGTCACCTAGTGCAG”, the binding signal rises from 3420 fluorescence intensity (a.u.) to 12300 fluorescence intensity (a.u.).

First: ATAAATTTGGACGCATCCCAAAATTCGGCAAACATATGACCGGAGTCACCTAGTGCAG
Second: GCAATTAATGATTTGCCACACCCTATCAATGACATGTGGGCGGAGTCACCTAGTGCAG
The binding signal of the first is higher: 39200 fluorescence intensity (a.u.) for the first, 3720 fluorescence intensity (a.u.) for the second.

Compared with “ACTGACATCGAGGCCCCACGTGTCAGTGACCCAGTTCTTTCGGAGTCACCTAGTGCAG”, “TGGTTCAAAATGTAAACATTAGTTAAATGGTGATCCAAAGCGGAGTCACCTAGTGCAG” is higher in binding signal: 13400 fluorescence intensity (a.u.) for the first, 49900 fluorescence intensity (a.u.) for the second.

Going from “GACCACACCAAAACTGCAATCACCTCACTCATCCAGTCATCGGAGTCACCTAGTGCAG” to “CGGCCAAGTGTGACCCGGCGTCACACCGATAATCGGCTGGCGGAGTCACCTAGTGCAG”, the binding signal falls from 5260 fluorescence intensity (a.u.) to 3480 fluorescence intensity (a.u.).

Going from “TCTGATCCGCTTTGCGTGGCCACTAACTCGGCCGCTACAGCGGAGTCACCTAGTGCAG” to “GGGGTGGTGCGAATTTGCCACGAGTTCACGTGATGAGTGTCGGAGTCACCTAGTGCAG”, the binding signal rises from 3210 fluorescence intensity (a.u.) to 4100 fluorescence intensity (a.u.).

Going from “TCCCATCCACCTCCATCGCCGCCGCCGCCGCGTATGCGCCCGGAGTCACCTAGTGCAG” to “TCTTCATGGTATATATGCACGCGCCAACTCACCACCACATCGGAGTCACCTAGTGCAG”, the binding signal rises from 4280 fluorescence intensity (a.u.) to 8510 fluorescence intensity (a.u.).

Compared with “CCCATCTACCCACCCTCCGACACGTGGGCCCCACCCCGACCGGAGTCACCTAGTGCAG”, “TCGCGTTCCATCGCCACGCCGCATGACGTCGCCCGTGTCACGGAGTCACCTAGTGCAG” is lower in binding signal: 11000 fluorescence intensity (a.u.) for the first, 7720 fluorescence intensity (a.u.) for the second.

Going from “TTCCTGCCGCAGTTGCCGACTTTGCAGTGCCCCGTGCCAACGGAGTCACCTAGTGCAG” to “TTGGGTTCTTGATATAACTGGTGGAAATGGCGAGGTAATTCGGAGTCACCTAGTGCAG”, the binding signal falls from 6020 fluorescence intensity (a.u.) to 3220 fluorescence intensity (a.u.).

Compared with “CGCTTCTTCCTGAGCTGACGTAGGCTACCATGTGTGCCCTCGGAGTCACCTAGTGCAG”, “TTGGACATGATTTTGGCCAACTAGGATTACATCATATTACCGGAGTCACCTAGTGCAG” is lower in binding signal: 5860 fluorescence intensity (a.u.) for the first, 4320 fluorescence intensity (a.u.) for the second.

Going from “GAATCTTTTAGCTCGGATTGCGTGTCTACAAGGCTCCATTCGGAGTCACCTAGTGCAG” to “CCGTCGTCGTCGTCGTGGCGGCGAGCAGGCTGTTGAGCTCCGGAGTCACCTAGTGCAG”, the binding signal rises from 3980 fluorescence intensity (a.u.) to 4780 fluorescence intensity (a.u.).

First: CCAACAATTATTCATATATAAGAAGATTTCAACGTGTACTCGGAGTCACCTAGTGCAG
Second: TCAAACACTCGACACGTGGCGCGCCTCCCAGCCGTCCGATCGGAGTCACCTAGTGCAG
The binding signal of the first is lower: 4210 fluorescence intensity (a.u.) for the first, 6920 fluorescence intensity (a.u.) for the second.

Compared with “TGTATACCACATCACTGACATTACGATGTATATATATACCCGGAGTCACCTAGTGCAG”, “CTCCGTTGTGCTCTGTCTCTCTACCGCCACCATCCACTGCCGGAGTCACCTAGTGCAG” is higher in binding signal: 4270 fluorescence intensity (a.u.) for the first, 39200 fluorescence intensity (a.u.) for the second.

First: TCGCGCCGCCGCCGCCGCCGCGTAGTCATCGAGTCGAGCACGGAGTCACCTAGTGCAG
Second: CATCCACCGCCACCGCCACCGCCACCGCCACCTCACCACCCGGAGTCACCTAGTGCAG
The binding signal of the first is lower: 4980 fluorescence intensity (a.u.) for the first, 6020 fluorescence intensity (a.u.) for the second.

First: CGGCGACAGCGTATCCAACGTAGGCTCGGGCCCACGTCGCCGGAGTCACCTAGTGCAG
Second: CGCTCCGCAGCCCACGCGAGCCACGCTGACGCGTAGGCCCCGGAGTCACCTAGTGCAG
The binding signal of the first is lower: 4100 fluorescence intensity (a.u.) for the first, 5570 fluorescence intensity (a.u.) for the second.

Going from “GACATGAATTTTCCATCATATATTCATGCGGTTCATTATGCGGAGTCACCTAGTGCAG” to “TACCATAATCTACCATTACAGACACTGACGTGTGAGACAACGGAGTCACCTAGTGCAG”, the binding signal rises from 4430 fluorescence intensity (a.u.) to 8050 fluorescence intensity (a.u.).

Going from “AGTTAAAGTTCAGAGTTGAAGAATAGAACTGGGTCTAATACGGAGTCACCTAGTGCAG” to “AGAATCGCTTATATTATGGGACGGACGTAACATATAGAAGCGGAGTCACCTAGTGCAG”, the binding signal rises from 26900 fluorescence intensity (a.u.) to 41100 fluorescence intensity (a.u.).

Compared with “ATGTGATGATTGTTAGTGGATGATGATGTGGCATCTTGTTCGGAGTCACCTAGTGCAG”, “CCTTGCAAACATGTCCTTCGTTTCCGTATCATGCGATTGGCGGAGTCACCTAGTGCAG” is lower in binding signal: 27000 fluorescence intensity (a.u.) for the first, 3530 fluorescence intensity (a.u.) for the second.
